From PMC4401782

By UniProt entry, the sequences of proteins in these tests, tags left out. Where a name states a change or a piece, a line headed by the entry shows the natural chain unless it says otherwise.
UniProt A0QQK6: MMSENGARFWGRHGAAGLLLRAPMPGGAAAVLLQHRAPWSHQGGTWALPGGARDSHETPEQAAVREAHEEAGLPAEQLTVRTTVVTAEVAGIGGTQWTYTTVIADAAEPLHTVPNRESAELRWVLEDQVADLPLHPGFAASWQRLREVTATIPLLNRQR

Target: RenU.6H expressed in M. smegmatis (M. smegmatis) (UniProt A0QQK6)
Experiment: affinity purification with mass spectrometry; RenU.6H expressed in M. smegmatis, purified from cell lysates (immobilized Cobalt affinity chromatography); co-purified proteins identified by LC/MS/MS

- binding: binds
B1: 50S ribosomal protein L13 of M. smegmatis (endogenous) (protein, UniProt A0QSP8 1-147)
chain: MPTYTPKAGDTTRSWYVIDASDVVLGRLASAAATLLRGKHKPTFTPNVDGGDFVIVINADKIAVSGDKLTKKFAYRHSGYPGGLRKRTIGELLEKHPTRVVENAIIGMLPHNKLGRQIQKKLKVYAGPDHPHAAQQPIPFEIKQVAQ

- binding: binds
B2: ssrA-binding protein SmpB of M. smegmatis (endogenous) (protein, UniProt A0QU63 1-161)
chain: MTKKSASSNNKVVATNRKARHNYTILDTYEAGIVLMGTEVKSLREGQASLADAFATVDDGEIWLRNVHIAEYHHGTWTNHAPRRNRKLLLHRKQIDNLIGKIRDGNLTLVPLSIYFTDGKVKVELALARGKQAHDKRQDLARRDAQREVIRELGRRAKGKI

No constants are given. Whether binding was seen depends on the method and setting. Binding seen in cells or lysates may run through a third protein. A yes stands for co-enrichment or nearness to the bait. Other partners may have been found. Each block holds one binder with its values, some of them ahead of it.
